Library screen at single concentrations

The values are deposited in ChEMBL (CHEMBL3988442, “University of Dundee, Small-Polar-MMV Screening Library” (2021)).

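Whole-cell growth test on Mycobacterium tuberculosis, read after 3 days in glucose-containing 7H9 medium; the read-out is not stated. Concentration: 500 µM. Higher reads as more growth inhibition (inferred: compounds with an IC50 in retests scored well above the rest). Size under these conditions: about 18,000 compounds, about 1,400 of them at 50% or above in at least one test.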

Values are the deposited “Percent Effect”, in %. The record does not define 0% and 100%; most values in the screen are far below 50% and negative numbers occur (in some assays of this library far below -100). The compounds are a random part of those screened.

| compound | percent effect |
|---|---|
| `CCC(C)(CCO)NC(=O)c1ccncc1Cl` (centres undefined) | -6.547% |
| `CC(Nc1ncnc2c1cnn2C)c1ccncc1` (centres undefined) | -2.063% |
| `CSCCCNC(=O)Nc1cc(C)ccn1` | 18.21% |
| `CN(C)C(=O)c1ccc(Cl)c(S(=O)(=O)N2CCCC2)c1` | 28.48% |
| `CNc1cccnc1N(C)C` | 18.22% |
| `N#Cc1ccc(OCCOCCn2cncn2)cc1` | 10.43% |
| `OCC1(NCc2cccc(Cl)c2F)CCOCC1` | -1.052% |
| `CC(O)c1cc2n(n1)CCN(Cc1cccnc1)C2` (centres undefined) | 6.388% |
| `CCc1ncc(C(=O)N2CCN(c3nccs3)CC2)s1` | 65.73% |
| `NCc1cccc(-c2nc(-c3ccncc3)no2)c1` | 50.09% |
| `Cc1ccc(NC(=O)CCN2CCN(C)CC2)cc1` | 14.4% |
| `CN1C(=O)C[C@H](N)[C@H]1c1cccnc1` | 15.6% |
| `CCC(=O)NCC(C)(NC(=O)CC)C(F)(F)F` (centres undefined) | 0.6947% |
| `CNCCCNC(=O)c1ccc2c(c1)CCC2` | 31.19% |
| `CN(Cc1nnc2n1CCC2)C(=O)c1ccc(Cl)s1` | 12.33% |
| `NCC(CO)Cc1ccncc1Cl` (centres undefined) | -1.287% |
| `O[C@H]1CN(Cc2cscn2)C[C@@H]1N1CCCC1` | 12.18% |
| `CCCC(C)CS(=O)(=O)NCc1ccncc1` (centres undefined) | 69.45% |
| `N[C@H]1CC[C@@H](n2cc(Br)cn2)CC1` | 11.27% |
| `CCOc1cccc(CSC(C)CO)n1` (centres undefined) | 39.29% |
| `O=C(c1cc(Cl)c[nH]1)N1CCNCC1` | 11.56% |
| `Cc1nn(CCO)c(NCc2cccc(F)c2)c1C` | 50.58% |
| `CCCNS(=O)(=O)c1ccc(OCC(N)=O)c(C)c1` | 18.88% |
| `CC(Sc1ncc2ccccn12)C(=O)NC(N)=O` (centres undefined) | -3.799% |
| `COc1cccc(CCC(=O)NCCCN(C)C)c1` | 2.937% |
| `CSCc1nc(CNCC2(O)CCCNC2)cs1` (centres undefined) | 9.915% |
| `COCCCN1C(=O)[C@H]2CNC[C@H]2C1=O` | 2.08% |
| `Cn1ccc(CNC(=O)NCC2CC2)c1` | 49.99% |
| `CC1CCCN(CCCN)C1` (centres undefined) | -20.03% |
| `Cc1nnc(SCc2ccc(F)cc2Cl)n1CC(N)=O` | 0.6658% |
| `CN(C)CCCOc1ccc(CN)cc1` | 23.84% |
| `O=C(NCC(O)c1ccc(F)cc1)Nc1cnns1` (centres undefined) | 58.77% |
| `O=C1C=CC(=O)N1c1ccccc1OC(F)F` | 107.4% |
| `CN(CCNC(=O)c1cc[nH]n1)Cc1ccccc1` | 11.26% |
| `CC(C#N)CNC(=O)OC(C)(C)C` (centres undefined) | -6.106% |
| `CN(CC(=O)Nc1cccc(Cl)c1)C(=O)CC#N` | 13.55% |
| `CCN1CC(C(=O)NCCc2nccs2)CC1=O` (centres undefined) | 11.45% |
| `Cn1cnc(S(=O)(=O)NCCc2cccnc2)c1Cl` | 4.462% |
| `CC(=O)N1CCNCC12CCCCC2` | 12.59% |
| `Nc1nnc(CCCNC(=O)c2cnc[nH]2)s1` | -0.1465% |
| `CCC(C)NCCOC` (centres undefined) | 0.6943% |
| `CCc1cc(=O)[nH]c(C(C)(C)N)n1` | 3.63% |
| `COC(=O)C(NCc1nnnn1C1CC1)C(C)(C)C` (centres undefined) | 9.27% |
| `CCN(CC)S(=O)(=O)N1CCNCC1` | 0.4866% |
| `O=C(CN1C[C@H]2CC[C@@H](C1)[C@H]2O)Nc1ccc(F)cc1` | 45.08% |
| `c1n[nH]c2c1CNC2` | 1.962% |
| `CC1=C(C(=O)N(C)C)C(c2ccccc2F)NC(=O)N1` (centres undefined) | 10.37% |
| `CCOc1ccccc1NC(=O)CSc1c[nH]nn1` | 31.55% |
| `Cc1nc(-c2ncccn2)sc1C(=O)N1CCSCC1` | 1.136% |
| `N[C@@H]1CCO[C@H]1c1ccnn1-c1ccccc1` | 12.71% |
| `CCOc1cccc(CNC(=O)C2CCS(=O)(=O)C2)c1` (centres undefined) | 4.158% |
| `CCC(NC(=O)COc1cccnc1)c1ccnn1C` (centres undefined) | 5.754% |
| `CC(C)NC(=O)N(C)C1CCS(=O)(=O)C1` (centres undefined) | 1.404% |
| `O=C(c1cc(Cl)ccc1O)N1CCOCC1` | 1.661% |
| `O=C(CCN1CCC(CO)CC1)Nc1ccc(Cl)cc1` | 43.35% |
| `O=C(Nc1ccc(F)cc1)NC1CCNCC1` | 2.171% |
| `Cc1cc(C)nc(NC(=O)Cc2cc(C)on2)n1` | 7.414% |
| `CNCc1cc(C#N)ccc1F` | 46.32% |
| `O=C(NCCCn1ccnn1)[C@H]1CC[C@@H](O)CC1` | 6.247% |
| `Cc1n[nH]cc1CNCc1cccs1` | -0.265% |
| `Cc1noc(C)c1CN1CCCC(CNS(C)(=O)=O)C1` (centres undefined) | 13.89% |
| `CC(=O)N[C@@H]1CN(Cc2cccc(Br)c2)C[C@H]1CO` | 18.19% |
| `Cc1nc(C)c(C(=O)N2CC[C@H](CO)[C@H](O)C2)s1` | 7.253% |
| `CSc1cc(NC(=O)CCc2cncc(F)c2)ccn1` | 23.07% |
| `COCC(C)NC(=O)c1cccnc1OCC(F)(F)F` (centres undefined) | -5.225% |
| `O=C1N(Cc2ccccc2)CCN1S(=O)(=O)Cl` | 65.65% |

Some entries from above, unchanged:

{"compound": "Cn1ccc(CNC(=O)NCC2CC2)c1", "percent effect": 49.99}
{"compound": "CC(O)c1cc2n(n1)CCN(Cc1cccnc1)C2", "stereo": "centres undefined", "percent effect": 6.388}
{"compound": "CC(=O)N[C@@H]1CN(Cc2cccc(Br)c2)C[C@H]1CO", "percent effect": 18.19}
{"compound": "N[C@H]1CC[C@@H](n2cc(Br)cn2)CC1", "percent effect": 11.27}
{"compound": "O=C(c1cc(Cl)ccc1O)N1CCOCC1", "percent effect": 1.661}
{"compound": "Nc1nnc(CCCNC(=O)c2cnc[nH]2)s1", "percent effect": -0.1465}
{"compound": "Cc1nc(-c2ncccn2)sc1C(=O)N1CCSCC1", "percent effect": 1.136}